The values that follow come from article PMC8602370.

By UniProt entry, the sequences of proteins in these tests, tags left out.
UniProt P09874: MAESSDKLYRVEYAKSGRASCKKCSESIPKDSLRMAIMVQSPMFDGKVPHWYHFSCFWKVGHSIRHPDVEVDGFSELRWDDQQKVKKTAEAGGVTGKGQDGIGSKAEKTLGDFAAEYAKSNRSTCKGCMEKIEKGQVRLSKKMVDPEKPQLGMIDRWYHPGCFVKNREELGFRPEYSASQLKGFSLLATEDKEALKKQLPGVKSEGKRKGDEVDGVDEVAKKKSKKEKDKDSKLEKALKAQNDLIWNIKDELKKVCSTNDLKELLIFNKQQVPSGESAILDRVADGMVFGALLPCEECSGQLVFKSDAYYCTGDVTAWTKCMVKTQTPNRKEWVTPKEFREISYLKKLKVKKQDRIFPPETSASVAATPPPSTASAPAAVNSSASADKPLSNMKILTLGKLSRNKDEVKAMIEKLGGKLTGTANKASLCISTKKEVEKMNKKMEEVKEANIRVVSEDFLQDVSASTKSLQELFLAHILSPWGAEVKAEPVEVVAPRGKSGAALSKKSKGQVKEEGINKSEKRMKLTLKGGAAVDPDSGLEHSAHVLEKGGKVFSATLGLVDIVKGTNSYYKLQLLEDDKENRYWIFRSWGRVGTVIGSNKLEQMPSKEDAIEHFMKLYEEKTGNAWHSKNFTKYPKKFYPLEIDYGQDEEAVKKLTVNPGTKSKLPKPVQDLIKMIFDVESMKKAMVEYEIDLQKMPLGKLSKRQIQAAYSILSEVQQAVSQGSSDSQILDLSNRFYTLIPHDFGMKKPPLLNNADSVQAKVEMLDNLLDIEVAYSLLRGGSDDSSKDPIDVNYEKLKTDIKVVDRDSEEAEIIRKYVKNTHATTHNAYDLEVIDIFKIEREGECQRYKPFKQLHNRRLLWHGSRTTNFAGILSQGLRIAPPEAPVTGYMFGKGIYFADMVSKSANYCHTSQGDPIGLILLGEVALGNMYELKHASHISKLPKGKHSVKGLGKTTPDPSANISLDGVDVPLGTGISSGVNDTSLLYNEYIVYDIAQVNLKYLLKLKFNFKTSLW

The target of assay [1] is PARP1 (residues 1 to 1014) (UniProt P09874). Kind of assay: SPR; biotinylated DNA SSB captured on a streptavidin chip, PARP1 (40 nM) flowed on to form a PARP1/DNA complex, then HPF1 injected without an NAD+ mimic; 25 mM HEPES pH 7.4, 250 mM NaCl, 0.1 mM TCEP, 1 mM EDTA, 0.05% Tween20; both purified. On the technique in general: Surface plasmon resonance follows binding to a sensor surface in real time, without labels.

The target of assay [2] is PARP1 (residues 1 to 1014), P09874. In words: SPR; biotinylated DNA SSB captured on a streptavidin chip, PARP1 (40 nM) flowed on to form a PARP1/DNA complex, then HPF1 injected with BAD (300 µM); 25 mM HEPES pH 7.4, 250 mM NaCl, 0.1 mM TCEP, 1 mM EDTA, 0.05% Tween20; both purified. As to conditions: remark: other sources report otherwise.
Assay [3] has the same target. In words: HDX-MS; 2.6 µM PARP1 with 5 µM SSB DNA, with or without 2.6 µM HPF1; on-exchange at room temperature in 10 mM HEPES pD 7.0, 150 mM NaCl, 75% D2O, 10 s to 100,000 s; no NAD+ mimic; both purified. As to conditions: remark: other sources report otherwise.
For assay [4] the target is unchanged. In words: negative-stain EM; PARP1 assembled with SSB DNA (one-nucleotide gap) and EB47, with or without HPF1, at 5 µM in 25 mM Hepes pH 8.0, 150 mM NaCl, 0.1 mM TCEP; uranyl formate stain, 2D class averages; both purified. As to conditions: remark: other sources report otherwise.

No constants are given. Whether binding was seen depends on the method and setting. Some results given as binding are weak or reduced against the parent protein; the word gives no strength. Where a sequence is shown, tags or fusion partners need not be part of it.

B1: Histone PARylation Factor 1 (HPF1) (protein, UniProt Q9NWY4 1-346)
chain: MVGGGGKRRPGGEGPQCEKTTDVKKSKFCEADVSSDLRKEVENHYKLSLPEDFYHFWKFCEELDPEKPSDSLSASLGLQLVGPYDILAGKHKTKKKSTGLNFNLHWRFYYDPPEFQTIIIGDNKTQYHMGYFRDSPDEFPVYVGINEAKKNCIIVPNGDNVFAAVKLFLTKKLREITDKKKINLLKNIDEKLTEAARELGYSLEQRTVKMKQRDKKVVTKTFHGAGLVVPVDKNDVGYRELPETDADLKRICKTIVEAASDEERLKAFAPIQEMMTFVQFANDECDYGMGLELGMDLFCYGSHYFHKVAGQLLPLAYNLLKRNLFAEIIEEHLANRSQENIDQLAA
On to B1, for which the binding entry in assay [1] is listed as “binds weakly”.

B2: Histone PARylation Factor 1 (HPF1), Q9NWY4 1-346 (natural protein)
chain: MVGGGGKRRPGGEGPQCEKTTDVKKSKFCEADVSSDLRKEVENHYKLSLPEDFYHFWKFCEELDPEKPSDSLSASLGLQLVGPYDILAGKHKTKKKSTGLNFNLHWRFYYDPPEFQTIIIGDNKTQYHMGYFRDSPDEFPVYVGINEAKKNCIIVPNGDNVFAAVKLFLTKKLREITDKKKINLLKNIDEKLTEAARELGYSLEQRTVKMKQRDKKVVTKTFHGAGLVVPVDKNDVGYRELPETDADLKRICKTIVEAASDEERLKAFAPIQEMMTFVQFANDECDYGMGLELGMDLFCYGSHYFHKVAGQLLPLAYNLLKRNLFAEIIEEHLANRSQENIDQLAA
Consider B2, for which the binding entry in assay [2], in assay [3] and in assay [4] was “binds” in each case.
